Assay results from article PMC4004456.
Results are given in words; binding and its absence hold for the method and conditions named. In cells and extracts the contact can be indirect. Some entries that bind do so weakly or less than the wild type.

Chains of the proteins cited; added tags and fusions are not shown. Residues count along the entry.
UniProt Q04206: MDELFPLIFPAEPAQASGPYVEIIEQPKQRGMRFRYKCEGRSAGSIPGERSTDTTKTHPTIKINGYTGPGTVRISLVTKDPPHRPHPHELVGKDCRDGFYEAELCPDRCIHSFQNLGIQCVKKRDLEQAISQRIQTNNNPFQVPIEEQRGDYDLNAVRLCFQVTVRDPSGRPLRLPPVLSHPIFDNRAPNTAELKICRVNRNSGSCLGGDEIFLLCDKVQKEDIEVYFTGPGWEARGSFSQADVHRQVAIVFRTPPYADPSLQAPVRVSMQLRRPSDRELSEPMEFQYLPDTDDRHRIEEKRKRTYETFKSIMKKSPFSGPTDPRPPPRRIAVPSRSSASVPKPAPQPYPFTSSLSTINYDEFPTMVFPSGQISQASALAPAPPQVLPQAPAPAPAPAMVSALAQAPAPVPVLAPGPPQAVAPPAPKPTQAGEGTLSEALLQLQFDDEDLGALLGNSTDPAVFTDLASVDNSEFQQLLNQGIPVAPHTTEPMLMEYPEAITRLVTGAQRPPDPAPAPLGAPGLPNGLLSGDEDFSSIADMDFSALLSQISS
UniProt P19838, residues 1-433: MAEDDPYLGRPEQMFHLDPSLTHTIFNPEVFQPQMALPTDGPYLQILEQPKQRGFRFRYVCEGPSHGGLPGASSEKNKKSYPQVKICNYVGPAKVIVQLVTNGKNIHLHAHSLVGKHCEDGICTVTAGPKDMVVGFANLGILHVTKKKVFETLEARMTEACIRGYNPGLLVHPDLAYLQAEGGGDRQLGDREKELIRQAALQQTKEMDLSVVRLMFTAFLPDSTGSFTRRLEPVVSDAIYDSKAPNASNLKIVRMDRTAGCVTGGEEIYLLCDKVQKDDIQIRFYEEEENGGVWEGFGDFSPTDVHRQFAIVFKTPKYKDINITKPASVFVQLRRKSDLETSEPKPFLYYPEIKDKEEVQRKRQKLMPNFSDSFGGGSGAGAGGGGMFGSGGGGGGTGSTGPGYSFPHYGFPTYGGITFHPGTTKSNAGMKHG

Target: NF-κB p65 (human (endogenous in DU145)) (UniProt Q04206)
Experiment: co-IP; lysates of DU145/sh-Con and DU145/sh-E2F1 (E2F1 knock-down) cells immunoprecipitated with anti-NF-κB p65 antibody; immunoprecipitates blotted with anti-p65, anti-p50 and anti-E2F1

binding: binds
Substance: NF-κB p50 (from UniProt P19838 1-433)
